Our source for the binding values is publication PMC12757429.

Sequences of proteins named here, by UniProt entry; tags and fusion partners are left off.
UniProt O00487: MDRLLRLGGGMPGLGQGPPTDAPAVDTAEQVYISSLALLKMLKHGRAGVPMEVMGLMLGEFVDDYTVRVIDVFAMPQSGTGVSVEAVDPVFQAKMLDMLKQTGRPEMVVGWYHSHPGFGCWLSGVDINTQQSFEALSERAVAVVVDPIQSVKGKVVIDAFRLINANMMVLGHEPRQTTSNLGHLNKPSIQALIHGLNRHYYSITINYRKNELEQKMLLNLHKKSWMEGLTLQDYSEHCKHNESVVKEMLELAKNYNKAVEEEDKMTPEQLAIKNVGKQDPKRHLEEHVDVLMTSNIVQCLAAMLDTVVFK
UniProt P14618: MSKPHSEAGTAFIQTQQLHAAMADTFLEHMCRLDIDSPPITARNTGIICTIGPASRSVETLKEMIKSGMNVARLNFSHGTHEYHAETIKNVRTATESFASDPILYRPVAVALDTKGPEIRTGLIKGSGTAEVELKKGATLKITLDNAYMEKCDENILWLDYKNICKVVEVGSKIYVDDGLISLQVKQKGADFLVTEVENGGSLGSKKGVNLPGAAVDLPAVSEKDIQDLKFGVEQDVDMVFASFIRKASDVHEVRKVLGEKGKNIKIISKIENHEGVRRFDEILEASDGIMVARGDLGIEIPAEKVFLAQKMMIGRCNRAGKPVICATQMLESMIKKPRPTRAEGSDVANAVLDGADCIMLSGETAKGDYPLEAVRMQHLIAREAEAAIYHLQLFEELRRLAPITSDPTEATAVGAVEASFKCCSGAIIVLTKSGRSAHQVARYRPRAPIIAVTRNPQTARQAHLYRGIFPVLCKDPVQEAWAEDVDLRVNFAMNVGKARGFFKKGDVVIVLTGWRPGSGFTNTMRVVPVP
UniProt O95347: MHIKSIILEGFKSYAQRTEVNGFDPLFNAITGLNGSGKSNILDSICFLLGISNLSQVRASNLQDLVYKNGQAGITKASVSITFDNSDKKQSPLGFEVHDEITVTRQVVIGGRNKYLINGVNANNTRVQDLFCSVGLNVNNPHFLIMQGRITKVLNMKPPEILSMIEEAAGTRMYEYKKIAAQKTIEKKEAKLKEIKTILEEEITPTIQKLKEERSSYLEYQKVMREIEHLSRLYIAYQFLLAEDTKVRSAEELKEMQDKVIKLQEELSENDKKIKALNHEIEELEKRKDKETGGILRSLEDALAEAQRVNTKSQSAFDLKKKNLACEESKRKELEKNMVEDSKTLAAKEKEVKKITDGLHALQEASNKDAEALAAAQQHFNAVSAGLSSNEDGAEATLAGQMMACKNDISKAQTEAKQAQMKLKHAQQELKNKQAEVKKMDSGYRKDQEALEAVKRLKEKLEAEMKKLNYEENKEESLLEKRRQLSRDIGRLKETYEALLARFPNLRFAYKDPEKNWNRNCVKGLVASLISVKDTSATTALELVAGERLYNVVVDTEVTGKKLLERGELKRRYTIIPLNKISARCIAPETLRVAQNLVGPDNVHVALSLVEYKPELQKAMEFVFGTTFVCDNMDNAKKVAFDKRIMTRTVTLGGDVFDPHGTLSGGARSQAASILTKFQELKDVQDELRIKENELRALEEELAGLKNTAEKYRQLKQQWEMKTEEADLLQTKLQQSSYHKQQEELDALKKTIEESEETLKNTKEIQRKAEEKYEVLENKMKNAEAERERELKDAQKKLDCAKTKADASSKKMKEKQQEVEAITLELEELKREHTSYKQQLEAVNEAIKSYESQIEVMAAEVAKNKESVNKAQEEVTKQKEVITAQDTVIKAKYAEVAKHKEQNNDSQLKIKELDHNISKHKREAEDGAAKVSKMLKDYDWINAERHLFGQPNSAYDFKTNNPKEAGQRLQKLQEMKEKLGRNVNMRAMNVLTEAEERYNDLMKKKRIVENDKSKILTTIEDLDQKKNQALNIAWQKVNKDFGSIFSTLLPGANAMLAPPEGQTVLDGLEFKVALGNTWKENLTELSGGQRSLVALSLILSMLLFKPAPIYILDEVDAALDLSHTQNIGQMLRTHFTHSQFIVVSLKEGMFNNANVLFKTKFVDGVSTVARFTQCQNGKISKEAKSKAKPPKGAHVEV

Where two headings read alike, the source gives them in different places. Results are given in words; binding and its absence hold for the method and conditions named. In cells and extracts the contact can be indirect. Here binding means that the protein was enriched with, or labelled near, the bait; the list need not be complete.

The target of test [1] is PSMD14 (Proteasome 26S Subunit, Non-ATPase 14), overexpressed in H1299 cells (UniProt O00487). Briefly: affinity purification with mass spectrometry; cleared lysate of H1299 cells (overexpressing PSMD14) in NP-40 buffer with protease inhibitors and 20 uM MG-132; immunoprecipitated with anti-PSMD14 antibody (ab109130) on Protein A/G magnetic beads; SDS-PAGE, in-gel tryptic digestion, LC-MS/MS.

Test [2] shares this target. The test is described as above. The source holds these as a separate data set.

For the molecule PKM (from UniProt P14618 1-531), in test [1], the binding entry is recorded as “binds”.
As for SMC2 (from UniProt O95347 1-1197), in test [1], the binding result is “binds”.

B1: Hyaluronan-mediated motility receptor (HMMR) (protein, UniProt O75330 1-724)
chain: MSFPKAPLKRFNDPSGCAPSPGAYDVKTLEVLKGPVSFQKSQRFKQQKESKQNLNVDKDTTLPASARKVKSSESKESQKNDKDLKILEKEIRVLLQERGAQDRRIQDLETELEKMEARLNAALREKTSLSANNATLEKQLIELTRTNELLKSKFSENGNQKNLRILSLELMKLRNKRETKMRGMMAKQEGMEMKLQVTQRSLEESQGKIAQLEGKLVSIEKEKIDEKSETEKLLEYIEEISCASDQVEKYKLDIAQLEENLKEKNDEILSLKQSLEENIVILSKQVEDLNVKCQLLEKEKEDHVNRNREHNENLNAEMQNLKQKFILEQQEREKLQQKELQIDSLLQQEKELSSSLHQKLCSFQEEMVKEKNLFEEELKQTLDELDKLQQKEEQAERLVKQLEEEAKSRAEELKLLEEKLKGKEAELEKSSAAHTQATLLLQEKYDSMVQSLEDVTAQFESYKALTASEIEDLKLENSSLQEKAAKAGKNAEDVQHQILATESSNQEYVRMLLDLQTKSALKETEIKEITVSFLQKITDLQNQLKQQEEDFRKQLEDEEGRKAEKENTTAELTEEINKWRLLYEELYNKTKPFQLQLDAFEVEKQALLNEHGAAQEQLNKIRDSYAKLLGHQNLKQKIKHVVKLKDENSQLKSEVSKLRCQLAKKKQSETKLQEELNKVLGIKHFDPSKAFHHESKENFALKTPLKEGNTNCYRAPMECQESWK
B1: in test [2], the binding entry is “binds”.
